Taken from: PubChem BioAssay AID743454 (Peter MacCallum Cancer Centre, 2014)
The deposit covers about 18,000 reagents; below is a random part of them. 450 of all reagents (2.5%) were called active. 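Single biological run; no consistent viability z cut-off exists, so the class columns, not z-scores, define the calls.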 Unmarked entries are inactive.

- Test: 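Search for knock-downs that restore vorinostat killing in resistant colon cancer cells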 (primary screen)
- Cells: human HCT116-VR colon cancer cells, selected for vorinostat resistance
- Knock-down reagent: siRNA pool against human genes, 40 nM siRNA pool
- Time to read-out: vorinostat for 24 h, read-out about 72 h after transfection
- Treatment: vorinostat at 2.5 µM final
- Measurement: 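Two measures, CellTiter-Fluor viability and luminescent caspase 3/7 activity, each as fold change against same-plate mock wells, mean of duplicates, then screen-wide robust z-score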
- Direction: viability robust z-score: higher = more viable cells than screen typical; caspase robust z-score: higher = more caspase 3/7 activity than screen typical
- Rule for the call: 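Hits are knock-downs in viability class RV1/RV2 or caspase class CA1/CA2, excluding ones that killed cells in the no-drug cell-count arm; hits then retested with single siRNAs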

STRN [SID135623776] — viability hit class: no change; caspase hit class: no change; viability robust z-score: 0.64; caspase robust z-score: -0.42
TTN [SID135620980] — viability hit class: no change; caspase hit class: no change; viability robust z-score: 0.54; caspase robust z-score: 0.41
CAPSL [SID152155555] — viability hit class: no change; caspase hit class: no change; viability robust z-score: 0.13; caspase robust z-score: 0.2
C11orf87 [SID135625101] — viability hit class: no change; caspase hit class: no change; viability robust z-score: 0.1; caspase robust z-score: 3.33
BCORL1 [SID152150548] — viability hit class: no change; caspase hit class: no change; viability robust z-score: -0.25; caspase robust z-score: 2.37
GPR108 [SID152153649] — viability hit class: no change; caspase hit class: no change; viability robust z-score: -0.05; caspase robust z-score: 1.18
TNRC18 [SID135624503] — viability hit class: no change; caspase hit class: no change; viability robust z-score: 0.21; caspase robust z-score: -0.72
LINC02910 [SID134322066] — viability hit class: no change; caspase hit class: no change; viability robust z-score: 0.5; caspase robust z-score: -0.11
AGAP6 [SID135625595] — viability hit class: no change; caspase hit class: no change; viability robust z-score: -0.46; caspase robust z-score: -0.14
PRRC1 [SID135623475] — viability hit class: no change; caspase hit class: no change; viability robust z-score: 0.26; caspase robust z-score: 0.18
HNRNPK [SID134316013] — viability hit class: RV2 (reduced viability) (active); caspase hit class: no change; viability robust z-score: -3.04; caspase robust z-score: 3.7
PJVK [SID135625601] — viability hit class: no change; caspase hit class: no change; viability robust z-score: 0.58; caspase robust z-score: -0.74
ZC3H13 [SID152156074] — viability hit class: no change; caspase hit class: no change; viability robust z-score: 1.4; caspase robust z-score: -0.61
PLIN2 [SID134323011] — viability hit class: no change; caspase hit class: no change; viability robust z-score: -0.12; caspase robust z-score: 1.84
SUCLA2 [SID134313120] — viability hit class: no change; caspase hit class: no change; viability robust z-score: 0.26; caspase robust z-score: -0.23
CMIP [SID135622786] — viability hit class: no change; caspase hit class: no change; viability robust z-score: 0.48; caspase robust z-score: -0.97
SNED1 [SID152148611] — viability hit class: no change; caspase hit class: no change; viability robust z-score: 0.4; caspase robust z-score: 3.07
UBE2J1 [SID135621341] — viability hit class: no change; caspase hit class: no change; viability robust z-score: 0.79; caspase robust z-score: -0.53
S100PBP [SID135622599] — viability hit class: no change; caspase hit class: no change; viability robust z-score: -2.04; caspase robust z-score: 0.68
MYBL2 [SID134314983] — viability hit class: no change; caspase hit class: no change; viability robust z-score: -1.21; caspase robust z-score: 0.36
ESM1 [SID135622303] — viability hit class: no change; caspase hit class: no change; viability robust z-score: 0.6; caspase robust z-score: -0.72

Records above whose target name begins with C or c:
CAPSL [SID152155555] — viability hit class: no change; caspase hit class: no change; viability robust z-score: 0.13; caspase robust z-score: 0.2
C11orf87 [SID135625101] — viability hit class: no change; caspase hit class: no change; viability robust z-score: 0.1; caspase robust z-score: 3.33
CMIP [SID135622786] — viability hit class: no change; caspase hit class: no change; viability robust z-score: 0.48; caspase robust z-score: -0.97
